# Laboratory results taken from the supplement of paper PMC10849652.
# Amino acid sequences for entries named in this document (tags omitted). A change or cut given only in a name is not applied to a line headed by its entry.
# UniProt Q9UL26: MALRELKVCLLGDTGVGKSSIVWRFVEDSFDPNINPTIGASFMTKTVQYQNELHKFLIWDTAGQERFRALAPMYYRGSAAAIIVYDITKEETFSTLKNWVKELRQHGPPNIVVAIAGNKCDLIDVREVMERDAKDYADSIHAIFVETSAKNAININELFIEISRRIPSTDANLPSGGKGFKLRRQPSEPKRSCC
# UniProt Q6WKZ4: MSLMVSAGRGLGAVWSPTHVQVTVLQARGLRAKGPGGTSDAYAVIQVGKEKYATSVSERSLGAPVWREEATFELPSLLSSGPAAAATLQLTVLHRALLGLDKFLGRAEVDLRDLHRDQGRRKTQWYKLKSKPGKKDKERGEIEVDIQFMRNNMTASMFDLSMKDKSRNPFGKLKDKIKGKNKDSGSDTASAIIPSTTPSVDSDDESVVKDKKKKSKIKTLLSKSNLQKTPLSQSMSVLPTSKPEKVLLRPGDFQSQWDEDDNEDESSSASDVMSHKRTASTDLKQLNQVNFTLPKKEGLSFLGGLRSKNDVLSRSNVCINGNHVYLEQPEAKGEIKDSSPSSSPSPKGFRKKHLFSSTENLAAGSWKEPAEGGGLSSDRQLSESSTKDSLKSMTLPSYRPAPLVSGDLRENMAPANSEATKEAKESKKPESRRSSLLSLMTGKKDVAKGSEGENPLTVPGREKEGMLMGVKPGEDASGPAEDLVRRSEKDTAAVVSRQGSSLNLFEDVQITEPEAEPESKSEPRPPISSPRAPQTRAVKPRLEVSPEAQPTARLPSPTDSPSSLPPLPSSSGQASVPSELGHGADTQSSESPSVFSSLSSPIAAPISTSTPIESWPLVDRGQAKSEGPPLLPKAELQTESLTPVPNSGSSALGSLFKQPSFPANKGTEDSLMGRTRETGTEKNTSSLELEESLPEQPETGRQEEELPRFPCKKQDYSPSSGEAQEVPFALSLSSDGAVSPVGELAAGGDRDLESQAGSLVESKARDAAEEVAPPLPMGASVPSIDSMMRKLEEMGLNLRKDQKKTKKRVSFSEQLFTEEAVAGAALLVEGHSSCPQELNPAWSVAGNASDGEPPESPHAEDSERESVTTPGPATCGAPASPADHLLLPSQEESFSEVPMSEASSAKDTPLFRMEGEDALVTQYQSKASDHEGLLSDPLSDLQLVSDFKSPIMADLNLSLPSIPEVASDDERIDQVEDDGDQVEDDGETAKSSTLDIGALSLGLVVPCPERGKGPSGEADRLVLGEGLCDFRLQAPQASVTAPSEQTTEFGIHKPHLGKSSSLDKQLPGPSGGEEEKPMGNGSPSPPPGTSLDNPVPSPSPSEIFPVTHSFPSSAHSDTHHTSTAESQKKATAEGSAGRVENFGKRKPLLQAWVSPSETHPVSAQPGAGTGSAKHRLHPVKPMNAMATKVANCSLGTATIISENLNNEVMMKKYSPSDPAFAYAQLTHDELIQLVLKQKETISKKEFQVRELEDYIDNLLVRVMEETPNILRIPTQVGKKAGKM
# UniProt Q96DA2: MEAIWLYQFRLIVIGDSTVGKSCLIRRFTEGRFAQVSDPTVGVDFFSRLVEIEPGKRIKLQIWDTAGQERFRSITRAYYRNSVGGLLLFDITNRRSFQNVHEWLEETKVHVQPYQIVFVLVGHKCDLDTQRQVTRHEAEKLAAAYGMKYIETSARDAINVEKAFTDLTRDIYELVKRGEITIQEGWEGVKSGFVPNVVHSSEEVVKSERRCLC
# UniProt Q9BTL3: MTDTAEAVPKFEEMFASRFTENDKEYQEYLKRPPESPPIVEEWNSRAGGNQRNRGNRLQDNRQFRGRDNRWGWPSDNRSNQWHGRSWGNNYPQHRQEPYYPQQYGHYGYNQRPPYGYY
# UniProt Q96S59, whole entry, looked up: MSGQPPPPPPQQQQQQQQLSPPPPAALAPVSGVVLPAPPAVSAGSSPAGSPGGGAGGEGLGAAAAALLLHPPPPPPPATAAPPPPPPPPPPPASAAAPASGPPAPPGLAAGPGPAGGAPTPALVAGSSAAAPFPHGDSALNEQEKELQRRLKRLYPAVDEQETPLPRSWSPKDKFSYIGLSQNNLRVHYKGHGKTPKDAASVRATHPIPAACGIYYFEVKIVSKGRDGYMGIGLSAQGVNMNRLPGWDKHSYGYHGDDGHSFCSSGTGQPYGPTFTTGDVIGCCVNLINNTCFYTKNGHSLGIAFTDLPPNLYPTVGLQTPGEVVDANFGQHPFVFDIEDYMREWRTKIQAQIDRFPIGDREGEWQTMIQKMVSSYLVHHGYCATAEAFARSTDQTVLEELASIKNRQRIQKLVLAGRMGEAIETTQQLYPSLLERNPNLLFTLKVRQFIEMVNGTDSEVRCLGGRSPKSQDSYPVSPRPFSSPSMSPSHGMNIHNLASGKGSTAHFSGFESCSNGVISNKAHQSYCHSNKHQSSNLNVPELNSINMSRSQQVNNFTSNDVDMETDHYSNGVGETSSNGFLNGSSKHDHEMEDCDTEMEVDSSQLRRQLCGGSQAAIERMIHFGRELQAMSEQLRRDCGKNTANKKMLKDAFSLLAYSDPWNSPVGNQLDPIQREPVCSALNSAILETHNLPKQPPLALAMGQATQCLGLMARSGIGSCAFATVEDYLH
# UniProt Q99638: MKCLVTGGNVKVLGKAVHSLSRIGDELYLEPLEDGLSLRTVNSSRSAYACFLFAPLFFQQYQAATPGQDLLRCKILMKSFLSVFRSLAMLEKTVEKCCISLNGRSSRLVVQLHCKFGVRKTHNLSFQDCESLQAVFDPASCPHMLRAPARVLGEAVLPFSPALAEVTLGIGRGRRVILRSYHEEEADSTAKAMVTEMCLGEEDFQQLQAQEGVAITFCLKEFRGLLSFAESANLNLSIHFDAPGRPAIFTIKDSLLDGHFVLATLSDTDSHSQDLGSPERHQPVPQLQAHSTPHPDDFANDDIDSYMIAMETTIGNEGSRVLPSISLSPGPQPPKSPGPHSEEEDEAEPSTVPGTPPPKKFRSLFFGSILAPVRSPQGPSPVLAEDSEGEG
# UniProt P61020: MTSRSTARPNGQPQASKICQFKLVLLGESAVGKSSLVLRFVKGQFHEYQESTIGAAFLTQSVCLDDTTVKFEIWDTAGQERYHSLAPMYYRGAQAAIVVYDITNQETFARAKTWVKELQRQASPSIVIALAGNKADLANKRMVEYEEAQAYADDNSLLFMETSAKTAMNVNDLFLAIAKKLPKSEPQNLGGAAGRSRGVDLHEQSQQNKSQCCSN
# UniProt P61225: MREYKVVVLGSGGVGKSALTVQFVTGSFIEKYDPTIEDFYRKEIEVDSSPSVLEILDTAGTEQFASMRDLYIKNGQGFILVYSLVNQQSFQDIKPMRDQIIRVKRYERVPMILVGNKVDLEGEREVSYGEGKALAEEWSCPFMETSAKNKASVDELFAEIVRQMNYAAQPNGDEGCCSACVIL
# UniProt P11216: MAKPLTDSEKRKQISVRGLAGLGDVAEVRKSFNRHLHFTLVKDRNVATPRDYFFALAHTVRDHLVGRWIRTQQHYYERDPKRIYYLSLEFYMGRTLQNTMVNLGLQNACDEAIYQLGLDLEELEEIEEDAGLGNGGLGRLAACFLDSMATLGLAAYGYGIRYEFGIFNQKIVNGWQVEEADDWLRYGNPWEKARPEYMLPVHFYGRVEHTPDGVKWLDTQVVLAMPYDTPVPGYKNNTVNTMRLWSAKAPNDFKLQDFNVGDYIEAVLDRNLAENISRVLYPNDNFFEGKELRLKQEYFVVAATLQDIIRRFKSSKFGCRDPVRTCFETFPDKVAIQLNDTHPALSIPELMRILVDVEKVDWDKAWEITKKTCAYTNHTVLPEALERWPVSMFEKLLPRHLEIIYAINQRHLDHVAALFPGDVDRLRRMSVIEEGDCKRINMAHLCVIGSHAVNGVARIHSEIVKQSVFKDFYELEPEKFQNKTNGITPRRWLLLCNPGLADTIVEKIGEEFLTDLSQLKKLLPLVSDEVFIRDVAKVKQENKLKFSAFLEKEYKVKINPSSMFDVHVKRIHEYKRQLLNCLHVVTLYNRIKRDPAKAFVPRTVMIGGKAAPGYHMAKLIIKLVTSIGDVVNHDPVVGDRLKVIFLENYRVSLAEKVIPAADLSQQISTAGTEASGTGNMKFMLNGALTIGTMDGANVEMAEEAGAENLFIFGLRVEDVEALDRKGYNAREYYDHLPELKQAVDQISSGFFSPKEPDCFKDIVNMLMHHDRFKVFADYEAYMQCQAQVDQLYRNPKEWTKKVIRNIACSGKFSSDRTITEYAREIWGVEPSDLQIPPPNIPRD
# UniProt P11233: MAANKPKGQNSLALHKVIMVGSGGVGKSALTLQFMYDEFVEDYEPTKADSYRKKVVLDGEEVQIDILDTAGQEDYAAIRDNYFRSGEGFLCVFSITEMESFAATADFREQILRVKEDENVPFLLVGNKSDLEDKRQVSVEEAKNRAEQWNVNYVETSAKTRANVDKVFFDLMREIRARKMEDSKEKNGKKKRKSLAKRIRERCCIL
# UniProt Q8TBN0: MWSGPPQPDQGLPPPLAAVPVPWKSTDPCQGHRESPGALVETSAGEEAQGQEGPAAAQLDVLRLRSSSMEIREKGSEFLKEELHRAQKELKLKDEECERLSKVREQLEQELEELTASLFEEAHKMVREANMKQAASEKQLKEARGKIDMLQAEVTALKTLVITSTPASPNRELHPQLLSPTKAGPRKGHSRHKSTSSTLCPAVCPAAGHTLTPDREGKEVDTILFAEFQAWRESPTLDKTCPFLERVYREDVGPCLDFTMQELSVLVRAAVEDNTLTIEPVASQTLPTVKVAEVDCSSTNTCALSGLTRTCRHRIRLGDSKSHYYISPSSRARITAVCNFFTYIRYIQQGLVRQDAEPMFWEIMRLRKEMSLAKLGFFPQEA
# UniProt P09417: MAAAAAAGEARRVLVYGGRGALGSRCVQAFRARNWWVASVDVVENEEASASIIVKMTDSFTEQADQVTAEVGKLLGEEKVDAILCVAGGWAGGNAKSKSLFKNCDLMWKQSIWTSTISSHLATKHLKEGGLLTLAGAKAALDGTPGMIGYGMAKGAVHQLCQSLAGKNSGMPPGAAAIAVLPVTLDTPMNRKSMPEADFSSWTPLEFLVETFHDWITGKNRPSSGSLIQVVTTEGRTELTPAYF
# UniProt Q15274: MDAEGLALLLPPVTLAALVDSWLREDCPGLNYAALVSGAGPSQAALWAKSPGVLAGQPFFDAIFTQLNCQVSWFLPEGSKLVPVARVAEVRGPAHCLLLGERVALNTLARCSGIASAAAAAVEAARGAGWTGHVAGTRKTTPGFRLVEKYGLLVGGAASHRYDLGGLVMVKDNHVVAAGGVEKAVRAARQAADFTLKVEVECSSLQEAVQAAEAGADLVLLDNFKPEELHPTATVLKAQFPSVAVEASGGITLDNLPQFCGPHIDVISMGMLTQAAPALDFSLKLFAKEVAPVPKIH
# UniProt Q7Z6M1: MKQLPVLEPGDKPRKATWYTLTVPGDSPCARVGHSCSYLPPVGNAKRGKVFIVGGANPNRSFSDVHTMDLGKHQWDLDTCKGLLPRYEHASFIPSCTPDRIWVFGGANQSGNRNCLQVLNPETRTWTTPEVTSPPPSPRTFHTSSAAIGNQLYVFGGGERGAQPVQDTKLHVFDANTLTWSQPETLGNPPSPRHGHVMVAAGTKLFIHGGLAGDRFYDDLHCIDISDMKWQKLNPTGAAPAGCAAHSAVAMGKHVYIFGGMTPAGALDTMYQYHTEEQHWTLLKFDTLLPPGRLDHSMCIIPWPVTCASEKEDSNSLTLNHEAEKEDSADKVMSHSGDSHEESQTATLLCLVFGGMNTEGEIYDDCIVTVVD
# UniProt Q6ZRP7: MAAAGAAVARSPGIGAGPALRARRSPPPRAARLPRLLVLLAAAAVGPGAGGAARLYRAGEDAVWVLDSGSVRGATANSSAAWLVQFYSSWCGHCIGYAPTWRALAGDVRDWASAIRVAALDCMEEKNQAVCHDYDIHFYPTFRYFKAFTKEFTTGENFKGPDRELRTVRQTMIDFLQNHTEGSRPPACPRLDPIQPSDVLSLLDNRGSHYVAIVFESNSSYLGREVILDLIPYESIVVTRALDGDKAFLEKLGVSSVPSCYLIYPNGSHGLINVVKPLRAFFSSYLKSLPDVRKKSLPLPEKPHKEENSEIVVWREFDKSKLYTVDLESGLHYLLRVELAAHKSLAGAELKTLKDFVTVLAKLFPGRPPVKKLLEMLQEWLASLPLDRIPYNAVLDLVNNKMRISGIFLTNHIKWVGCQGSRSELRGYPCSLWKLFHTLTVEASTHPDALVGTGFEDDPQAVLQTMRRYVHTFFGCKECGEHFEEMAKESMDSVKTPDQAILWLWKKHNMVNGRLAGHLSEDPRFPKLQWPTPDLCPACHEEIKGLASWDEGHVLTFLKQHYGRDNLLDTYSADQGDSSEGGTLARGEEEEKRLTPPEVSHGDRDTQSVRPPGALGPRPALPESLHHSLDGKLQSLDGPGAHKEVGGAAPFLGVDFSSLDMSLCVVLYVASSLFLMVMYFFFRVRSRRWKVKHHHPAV
# UniProt P20340: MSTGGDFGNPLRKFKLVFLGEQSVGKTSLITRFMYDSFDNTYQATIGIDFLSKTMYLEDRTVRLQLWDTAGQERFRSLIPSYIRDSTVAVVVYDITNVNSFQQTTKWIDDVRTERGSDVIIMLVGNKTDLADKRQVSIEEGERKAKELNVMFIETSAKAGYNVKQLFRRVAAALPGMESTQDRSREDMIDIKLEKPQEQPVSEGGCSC
# The other results are listed elsewhere or left out.
# Key:
# Experiment in all cases: log2 fold change, soluble protein after heating vs DMSO (PISA); higher = thermal stabilisation; K562 lysate, 10 uM; active = over 0.2 and 3.5 SD of the protein, either way, in both replicates (recomputed)
# alvocidib = compound: CN1CC[C@H](c2c(O)cc(O)c3c(=O)cc(-c4ccccc4Cl)oc23)[C@H](O)C1 [alvocidib]
# How it was run: (§1)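 K562 pellets were dounce-homogenised in PBS pH 7.4 containing 1 mM MgCl2, and the crude extract, at 1 mg/mL protein, was exposed to 10 μM compound for 30 min. Aliquots were heated for 3 min across 48°C-58°C, pooled, brought to 0.5% NP-40 at 4°C and spun at 21,000xg for 90 min, with the supernatant taken as soluble protein. TMTpro 16plex LC-MS/MS with equalised channel sums quantified that protein. Values are log-two fold changes in thermal stability relative to solvent controls, taken from duplicates.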
# Tubastatin A = compound: CN1CCc2c(c3ccccc3n2Cc2ccc(C(=O)NO)cc2)C1 [Tubastatin A]
# How it was run: as §1
# [1] = compound: CNC(=O)C1=CC=CC=C1NC2=NC(=NC=C2Cl)NC3=C(C=C(C=C3)N4CCOCC4)OC
# How it was run: as §1
# defactinib = compound: CNC(=O)c1ccc(Nc2ncc(C(F)(F)F)c(NCc3nccnc3N(C)S(C)(=O)=O)n2)cc1 [defactinib]
# How it was run: as §1
# [2] = compound: CNc1nc(-c2ccc3c(N)n[nH]c3c2)cc(N2C[C@@H](C(=O)NC3CCCCC3)CC[C@H]2C)n1
# How it was run: as §1
# encorafenib = compound: COC(=O)N[C@@H](C)CNc1nccc(-c2cn(C(C)C)nc2-c2cc(Cl)cc(NS(C)(=O)=O)c2F)n1 [encorafenib]
# How it was run: as §1
# [3] = compound: COC(=O)[C@H](CCSC)NC(=O)C1=C(C=C(C=C1)NC[C@H](CS)N)C2=CC=CC=C2
# How it was run: as §1
# alisertib = compound: COc1cc(Nc2ncc3c(n2)-c2ccc(Cl)cc2C(c2c(F)cccc2OC)=NC3)ccc1C(=O)O [alisertib]
# How it was run: as §1
# [4] = compound: COc1cc2nc(-c3cc(F)ccc3O)nc(N[C@@H]3CNC[C@H]3C(C)(C)O)c2cc1OC
# How it was run: as §1
# gefitinib = compound: COc1cc2ncnc(Nc3ccc(F)c(Cl)c3)c2cc1OCCCN1CCOCC1 [gefitinib]
# How it was run: as §1
Target,log2 fold change (alvocidib),log2 fold change (Tubastatin A),log2 fold change [1],log2 fold change (defactinib),log2 fold change [2],log2 fold change (encorafenib),log2 fold change [3],log2 fold change (alisertib),log2 fold change [4],log2 fold change (gefitinib)
RAB22A (UniProt Q9UL26),inactive: -0.037,inactive: 0.01,inactive: 0.097,inactive: -0.019,inactive: -0.052,inactive: 0.03,inactive: -0.064,inactive: 0.045,inactive: 0.061,inactive: 0.037
RAB11FIP1 (UniProt Q6WKZ4),inactive: -0.022,inactive: 0.011,inactive: 0.015,inactive: 0.01,inactive: 0.051,inactive: 0.044,inactive: -0.059,inactive: -0.018,inactive: 0.013,inactive: -0.036
RAB39B (UniProt Q96DA2),inactive: -0.675,,,,,,,,,
RAB3A (UniProt P20336),inactive: -0.01,inactive: -0.007,inactive: 0.022,inactive: 0.002,inactive: 0.008,inactive: 0.09,inactive: -0.041,inactive: 0.077,inactive: 0.014,inactive: 0.001
RABGAP1 (UniProt Q9Y3P9),inactive: -0.009,inactive: -0.032,inactive: 0.014,inactive: 0.004,inactive: 0,inactive: 0.006,inactive: -0.01,inactive: -0.023,inactive: 0.013,inactive: -0.026
PXK (UniProt Q7Z7A4),inactive: 0.034,inactive: -0.054,inactive: 0.016,inactive: 0.018,inactive: 0.012,inactive: -0.002,inactive: 0.006,inactive: 0.047,inactive: 0.015,inactive: 0.011
RAMAC (UniProt Q9BTL3),inactive: 0.025,inactive: 0.048,inactive: 0.076,inactive: 0.019,inactive: -0.041,inactive: -0.027,inactive: 0.006,inactive: -0.004,inactive: -0.074,inactive: -0.019
PYCR3 (UniProt Q53H96),inactive: -0.048,inactive: -0.006,inactive: -0.015,inactive: -0.023,inactive: 0.049,inactive: 0.025,inactive: -0.124,inactive: -0.084,inactive: 0.011,inactive: -0.014
RANBP9 (UniProt Q96S59),inactive: -0.002,inactive: -0.036,inactive: -0.018,inactive: -0.03,inactive: 0.017,inactive: 0.03,inactive: 0.001,inactive: -0.005,inactive: -0.009,inactive: -0.019
RALGAPA1 isoform 6 (UniProt Q6GYQ0),inactive: -0.102,inactive: 0.033,inactive: 0.007,inactive: 0.069,inactive: 0.003,inactive: 0.016,inactive: 0.094,inactive: -0.029,inactive: 0.047,inactive: 0.056
RAD9A (UniProt Q99638),inactive: -0.083,inactive: -0.053,inactive: 0.019,inactive: 0.004,inactive: -0.029,inactive: -0.018,inactive: 0.009,inactive: 0.032,inactive: 0.056,inactive: 0.057
RAB5B (UniProt P61020),inactive: 0.004,inactive: 0.105,inactive: 0.015,inactive: 0.019,inactive: 0.027,inactive: 0,inactive: -0.117,inactive: 0.009,inactive: 0.001,inactive: -0.022
RAP2B (UniProt P61225),inactive: 0.014,inactive: 0.07,inactive: 0.024,inactive: 0.075,inactive: -0.019,inactive: 0.019,inactive: -0.013,inactive: -0.02,inactive: 0.021,inactive: -0.002
RAB3GAP1 (UniProt Q15042),inactive: 0.008,inactive: -0.039,inactive: 0.02,inactive: -0.011,inactive: -0.056,inactive: 0.027,inactive: 0.046,inactive: 0.022,inactive: 0.002,inactive: -0.021
PYGB (UniProt P11216),inactive: 0.084,inactive: -0.003,inactive: -0.005,inactive: -0.006,inactive: -0.084,inactive: -0.001,inactive: -0.018,inactive: -0.011,inactive: -0.005,inactive: 0.016
RABGGTA (UniProt Q92696),inactive: -0.026,inactive: -0.008,inactive: -0.007,inactive: -0.015,inactive: -0.051,inactive: 0.038,inactive: -0.205,inactive: 0.011,inactive: 0.006,inactive: 0.008
RALA (UniProt P11233),inactive: -0.164,inactive: 0.044,inactive: 0.016,inactive: -0.057,inactive: 0.056,inactive: 0.03,inactive: -0.102,inactive: 0.009,inactive: 0.01,inactive: 0.023
RAB24 (UniProt Q969Q5),inactive: -0.028,inactive: 0.029,inactive: -0.028,inactive: -0.04,inactive: -0.01,inactive: -0.027,inactive: 0.012,inactive: -0.026,inactive: 0.07,inactive: -0.002
RAC2 (UniProt P15153),inactive: 0.047,inactive: -0.086,inactive: 0.082,inactive: 0.007,inactive: 0.06,inactive: -0.022,inactive: -0.001,inactive: 0.051,inactive: 0.056,inactive: 0.016
RAE1 (UniProt P78406),inactive: -0.038,inactive: -0.072,inactive: 0.039,inactive: -0.004,inactive: -0.044,inactive: 0.038,active: 0.345,inactive: -0.015,inactive: -0.002,inactive: 0.033
RAB3IL1 (UniProt Q8TBN0),inactive: 0.027,inactive: -0.021,inactive: 0.022,inactive: 0.007,inactive: 0.009,inactive: -0.006,inactive: -0.031,inactive: -0.013,inactive: 0.039,inactive: 0.014
RAF1 isoform 2 (UniProt P04049),inactive: 0.048,inactive: -0.022,inactive: 0.019,inactive: -0.097,inactive: -0.001,active: 1.06,inactive: 0.048,inactive: -0.007,inactive: 0.052,inactive: 0.022
QDPR (UniProt P09417),inactive: 0.017,inactive: 0.005,inactive: -0.033,inactive: -0.033,inactive: -0.035,inactive: -0.05,inactive: 0.031,inactive: -0.001,inactive: 0.026,inactive: 0.014
RAB3IP (UniProt Q96QF0),inactive: -0.076,inactive: -0.139,inactive: 0.01,inactive: -0.075,inactive: 0.098,inactive: 0.048,inactive: -0.078,inactive: -0.095,inactive: 0.076,inactive: 0.1
RAB3GAP2 (UniProt Q9H2M9),inactive: -0.003,inactive: -0.061,inactive: 0.004,inactive: 0.007,inactive: -0.014,inactive: 0.025,inactive: 0.051,inactive: 0.035,inactive: -0.006,inactive: 0.003
QPRT (UniProt Q15274),inactive: 0.003,inactive: 0.034,inactive: -0.008,inactive: 0.052,inactive: 0.055,inactive: 0,inactive: -0.042,inactive: 0.01,inactive: -0.008,inactive: -0.009
RABIF (UniProt P47224),inactive: -0.04,inactive: 0.036,inactive: 0.009,inactive: 0.02,inactive: 0.017,inactive: 0.001,inactive: -0.015,inactive: -0.038,inactive: 0.01,inactive: -0.003
RABEPK (UniProt Q7Z6M1),inactive: 0.03,inactive: -0.048,inactive: 0.004,inactive: 0.014,inactive: -0.025,inactive: 0.004,inactive: 0.032,inactive: 0.002,inactive: 0,inactive: 0.01
QSOX2 (UniProt Q6ZRP7),inactive: -0.013,inactive: 0.038,inactive: -0.002,inactive: 0.025,inactive: -0.005,inactive: 0.032,inactive: 0.001,inactive: -0.005,inactive: -0.013,inactive: -0.01
RAB6A isoform 4 (UniProt P20340),inactive: -0.005,inactive: 0.034,inactive: 0.05,inactive: 0.005,inactive: 0.027,inactive: 0.078,inactive: -0.046,inactive: 0.014,inactive: 0.029,inactive: -0.057

# Retrieved one by one from the list above:
Target,log2 fold change (alvocidib),log2 fold change (Tubastatin A),log2 fold change [1],log2 fold change (defactinib),log2 fold change [2],log2 fold change (encorafenib),log2 fold change [3],log2 fold change (alisertib),log2 fold change [4],log2 fold change (gefitinib)
RAD9A (UniProt Q99638),inactive: -0.083,inactive: -0.053,inactive: 0.019,inactive: 0.004,inactive: -0.029,inactive: -0.018,inactive: 0.009,inactive: 0.032,inactive: 0.056,inactive: 0.057
RABGGTA (UniProt Q92696),inactive: -0.026,inactive: -0.008,inactive: -0.007,inactive: -0.015,inactive: -0.051,inactive: 0.038,inactive: -0.205,inactive: 0.011,inactive: 0.006,inactive: 0.008
